Protein sequences can lack the tags named with them.
Legend:
Test in all cases: activity assay
[1] = tested on: T1, DNA polymerase clone 2323 (uncultured hot spring virus); conditions: primer extension, 70 C, 2 mM MgSO4; 3' exonuclease present; protein in a lysate after overexpression; label: 5'-ROX on primer
T1 sequence (limits assumed): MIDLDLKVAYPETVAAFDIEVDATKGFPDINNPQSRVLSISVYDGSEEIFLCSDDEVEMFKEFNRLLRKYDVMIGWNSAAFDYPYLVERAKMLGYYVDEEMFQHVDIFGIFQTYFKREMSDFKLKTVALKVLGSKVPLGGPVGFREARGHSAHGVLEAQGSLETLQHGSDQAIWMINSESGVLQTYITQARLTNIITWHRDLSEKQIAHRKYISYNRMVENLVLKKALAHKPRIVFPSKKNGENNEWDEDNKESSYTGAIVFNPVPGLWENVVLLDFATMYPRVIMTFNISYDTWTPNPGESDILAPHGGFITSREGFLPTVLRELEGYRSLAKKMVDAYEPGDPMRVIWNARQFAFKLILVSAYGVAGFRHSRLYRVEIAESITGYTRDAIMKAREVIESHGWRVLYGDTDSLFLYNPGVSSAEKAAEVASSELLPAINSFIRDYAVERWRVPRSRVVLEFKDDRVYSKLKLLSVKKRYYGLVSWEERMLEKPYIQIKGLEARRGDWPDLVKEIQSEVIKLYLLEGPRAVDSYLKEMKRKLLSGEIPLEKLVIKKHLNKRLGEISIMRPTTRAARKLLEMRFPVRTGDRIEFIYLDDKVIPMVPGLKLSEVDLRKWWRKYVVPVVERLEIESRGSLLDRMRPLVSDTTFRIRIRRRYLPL

[2] = tested on: T2, DNA polymerase clone 967 (uncultured hot spring virus (Octopus Spring)); conditions: primer extension, 70 C, 2 mM MgSO4; no exonuclease; protein in a lysate after overexpression; label: 5'-ROX on primer
T2 sequence (limits assumed): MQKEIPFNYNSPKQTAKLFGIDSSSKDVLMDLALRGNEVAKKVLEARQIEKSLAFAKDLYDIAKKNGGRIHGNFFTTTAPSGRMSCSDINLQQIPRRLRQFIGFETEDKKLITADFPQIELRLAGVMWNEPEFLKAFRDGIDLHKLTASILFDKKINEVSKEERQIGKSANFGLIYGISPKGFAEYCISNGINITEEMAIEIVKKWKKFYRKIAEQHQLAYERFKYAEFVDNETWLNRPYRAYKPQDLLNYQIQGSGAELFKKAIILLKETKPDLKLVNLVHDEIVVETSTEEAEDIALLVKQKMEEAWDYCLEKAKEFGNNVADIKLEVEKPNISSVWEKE

[3] = tested on: T3, DNA polymerase clone 3063 (uncultured hot spring virus); conditions: primer extension, 70 C, 2 mM MgSO4; 3' exonuclease present; protein in a lysate after overexpression; label: 5'-ROX on primer
T3 sequence (limits assumed): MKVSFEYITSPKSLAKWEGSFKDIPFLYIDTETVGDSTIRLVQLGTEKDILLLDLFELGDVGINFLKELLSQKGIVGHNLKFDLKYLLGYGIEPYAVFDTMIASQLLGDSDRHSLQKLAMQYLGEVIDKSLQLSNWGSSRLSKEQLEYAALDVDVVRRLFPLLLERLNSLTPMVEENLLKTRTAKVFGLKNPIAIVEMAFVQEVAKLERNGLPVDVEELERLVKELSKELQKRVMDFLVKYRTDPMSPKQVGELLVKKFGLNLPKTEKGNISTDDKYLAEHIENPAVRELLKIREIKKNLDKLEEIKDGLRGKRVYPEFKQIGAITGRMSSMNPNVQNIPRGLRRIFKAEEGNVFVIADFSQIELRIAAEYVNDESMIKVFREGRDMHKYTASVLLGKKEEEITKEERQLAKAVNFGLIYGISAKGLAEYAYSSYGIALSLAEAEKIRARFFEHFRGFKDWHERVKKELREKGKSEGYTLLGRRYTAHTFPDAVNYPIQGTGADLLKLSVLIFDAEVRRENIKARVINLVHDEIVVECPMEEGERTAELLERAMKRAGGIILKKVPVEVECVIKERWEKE

[4] = tested on: T4, DNA polymerase 3173 (uncultured hot spring virus (Octopus Spring)); conditions: primer extension, 70 C, 2 mM MgSO4; 3'-5' exonuclease present; purified recombinant protein; label: 5'-ROX on primer
T4 sequence (limits assumed): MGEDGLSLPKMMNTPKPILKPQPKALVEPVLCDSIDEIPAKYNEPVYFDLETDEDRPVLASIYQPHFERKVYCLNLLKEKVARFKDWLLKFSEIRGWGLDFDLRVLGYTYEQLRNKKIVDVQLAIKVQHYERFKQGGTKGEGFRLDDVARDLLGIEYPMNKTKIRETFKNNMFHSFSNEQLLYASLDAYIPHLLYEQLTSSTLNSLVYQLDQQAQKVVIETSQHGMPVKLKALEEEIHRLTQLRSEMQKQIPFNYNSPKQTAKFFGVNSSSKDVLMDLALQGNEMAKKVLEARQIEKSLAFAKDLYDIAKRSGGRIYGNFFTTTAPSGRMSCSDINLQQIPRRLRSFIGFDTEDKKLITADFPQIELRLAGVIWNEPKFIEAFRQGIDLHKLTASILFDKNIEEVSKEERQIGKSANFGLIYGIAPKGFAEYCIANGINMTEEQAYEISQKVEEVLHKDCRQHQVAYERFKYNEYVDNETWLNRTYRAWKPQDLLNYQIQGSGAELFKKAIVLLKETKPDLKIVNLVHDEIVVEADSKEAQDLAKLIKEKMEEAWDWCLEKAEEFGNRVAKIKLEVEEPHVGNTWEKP

[5] = tested on: T5, DNA polymerase clone 2783 (uncultured hot spring virus); conditions: primer extension, 70 C, 2 mM MgSO4; 3' exonuclease present; protein in a lysate after overexpression; label: 5'-ROX on primer
T5 sequence (limits assumed): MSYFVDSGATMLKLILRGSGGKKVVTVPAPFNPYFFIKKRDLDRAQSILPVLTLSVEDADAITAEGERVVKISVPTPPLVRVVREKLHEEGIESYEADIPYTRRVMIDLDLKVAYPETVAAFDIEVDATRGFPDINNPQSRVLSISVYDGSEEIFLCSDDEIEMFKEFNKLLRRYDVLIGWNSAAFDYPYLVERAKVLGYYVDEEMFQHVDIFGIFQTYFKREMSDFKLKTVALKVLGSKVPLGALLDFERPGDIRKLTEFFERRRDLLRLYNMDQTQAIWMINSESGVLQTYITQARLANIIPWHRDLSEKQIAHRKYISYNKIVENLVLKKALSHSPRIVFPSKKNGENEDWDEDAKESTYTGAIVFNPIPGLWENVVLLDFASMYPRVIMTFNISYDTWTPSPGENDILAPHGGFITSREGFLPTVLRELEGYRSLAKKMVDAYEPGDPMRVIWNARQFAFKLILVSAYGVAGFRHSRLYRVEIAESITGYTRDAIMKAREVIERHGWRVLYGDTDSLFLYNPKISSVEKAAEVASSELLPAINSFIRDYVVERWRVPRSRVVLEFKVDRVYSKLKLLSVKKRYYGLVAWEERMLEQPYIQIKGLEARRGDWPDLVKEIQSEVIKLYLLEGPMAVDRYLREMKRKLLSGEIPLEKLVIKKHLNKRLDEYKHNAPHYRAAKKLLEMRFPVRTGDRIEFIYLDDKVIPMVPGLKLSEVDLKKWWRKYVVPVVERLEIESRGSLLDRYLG

[6] = tested on: T6, DNA polymerase clone 488 (uncultured hot spring virus); conditions: primer extension, 70 C, 2 mM MgSO4; no exonuclease; protein in a lysate after overexpression; label: 5'-ROX on primer
T6 sequence (limits assumed): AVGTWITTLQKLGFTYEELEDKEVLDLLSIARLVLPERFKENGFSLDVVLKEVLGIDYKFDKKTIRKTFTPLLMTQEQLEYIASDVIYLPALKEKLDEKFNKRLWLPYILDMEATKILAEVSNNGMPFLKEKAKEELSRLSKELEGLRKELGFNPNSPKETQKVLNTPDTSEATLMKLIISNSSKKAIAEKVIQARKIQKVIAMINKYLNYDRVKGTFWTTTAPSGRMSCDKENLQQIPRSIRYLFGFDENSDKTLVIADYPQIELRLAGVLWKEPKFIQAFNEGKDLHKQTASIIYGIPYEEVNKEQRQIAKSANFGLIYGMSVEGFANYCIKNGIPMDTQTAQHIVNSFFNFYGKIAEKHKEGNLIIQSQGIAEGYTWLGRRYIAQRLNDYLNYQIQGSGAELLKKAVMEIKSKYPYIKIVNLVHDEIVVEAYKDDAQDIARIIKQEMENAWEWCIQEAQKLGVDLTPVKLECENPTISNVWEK

[7] = tested on: T7, DNA polymerase clone 4110 (uncultured hot spring virus); conditions: primer extension, 70 C, 2 mM MgSO4; no exonuclease; protein in a lysate after overexpression; label: 5'-ROX on primer
T7 sequence (limits assumed): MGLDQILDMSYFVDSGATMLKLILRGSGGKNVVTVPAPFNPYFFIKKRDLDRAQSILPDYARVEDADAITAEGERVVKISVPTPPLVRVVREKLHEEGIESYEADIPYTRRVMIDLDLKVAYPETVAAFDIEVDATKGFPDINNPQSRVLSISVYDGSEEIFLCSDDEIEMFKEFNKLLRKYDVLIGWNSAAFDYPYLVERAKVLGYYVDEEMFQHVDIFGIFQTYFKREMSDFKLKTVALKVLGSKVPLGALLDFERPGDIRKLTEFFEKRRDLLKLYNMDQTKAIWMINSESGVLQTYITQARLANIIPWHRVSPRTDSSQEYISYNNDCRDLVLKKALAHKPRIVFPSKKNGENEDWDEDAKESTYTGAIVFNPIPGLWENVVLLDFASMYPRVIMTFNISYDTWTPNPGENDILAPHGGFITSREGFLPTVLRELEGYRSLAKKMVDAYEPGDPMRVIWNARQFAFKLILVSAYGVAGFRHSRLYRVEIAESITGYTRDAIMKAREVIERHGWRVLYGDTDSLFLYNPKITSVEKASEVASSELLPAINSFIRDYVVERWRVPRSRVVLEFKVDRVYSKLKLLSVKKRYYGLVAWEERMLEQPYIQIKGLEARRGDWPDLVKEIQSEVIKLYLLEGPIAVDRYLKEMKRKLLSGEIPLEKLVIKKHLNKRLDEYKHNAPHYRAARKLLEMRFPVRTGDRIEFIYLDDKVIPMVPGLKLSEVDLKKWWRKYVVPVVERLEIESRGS

Measured: activity on this sequence

TGTCTCAGACAGTCAGACTGCTGACAGATGACTTGCA / AACGTGCAAGTCATCTGTCAGCAGTCTGACTGTCTGAGACA [37-mer primer/41-mer template]
active: all assays above
